From publication PMC12040169 (PLOS Biology, 2025) come the findings set out here.

Some of the results follow.

For the assay, the system named is T1, CTL2-GFP (C. trachomatis L2/434/Bu, GFP-expressing).
T1 construct: L2/434/Bu, GFP-expressing
Further details: species or system HeLa; Intracellular C. trachomatis growth in HeLa cells, bulk GFP fluorescence relative to DMSO. The note with it: bulk GFP, single well; 28.5 h, 10 µM; inhibitor.
For `COc1cccn(CC(=O)N(C)CCc2scnc2C)c1=O` [CBK306726], the “% of control remaining” value is recorded as 95.0725%. To `Cc1ccc(Nc2c([N+](=O)[O-])nn(-c3ccccc3)[n+]2[O-])cc1F` [CBK268414] belongs 113.65%. The figure for `c1coc(-c2cc3ncc4c(n3n2)CC2CCC4N2)c1` (stereo not shown) [CBK284381] is 107.375%.

On to `CC1(C)CCCN(Cc2nnnn2-c2ccc(S(C)(=O)=O)cc2)C1` [CBK306181], for which the “% of control remaining” value came to 112.191%. The figure for `O=C(NCCc1ccc(Cl)cc1)C1(Cc2ccc(-c3cccnc3)cc2)CCOCC1` [CBK285589] is 60.7886%. To `COCCCN(Cc1ccccn1)Cc1c(F)cccc1F` [CBK282959] belongs 116.566%. Take `Oc1ccccc1CNC1(Cc2cc(-c3ccc(F)cc3)on2)COC1` [CBK289655]: the “% of control remaining” value is listed as 142.163%. On to `CC(=O)N1CCN(c2c(-c3ccccc3)nnc3ccccc23)CC1` [CBK066889], for which the “% of control remaining” value is recorded as 131.628%. As for `Nc1nnc(SCC(=O)N2CCN(C(c3ccccc3)c3ccccc3)CC2)s1` [CBK266320], the “% of control remaining” value is reported as 112.733%.

For `CC(=O)OC1CCn2c1nc1cc(C(F)(F)F)ccc12` (stereo not shown) [CBK115367], the “% of control remaining” value turned out to be 126.551%. To `COc1cc(-c2cncc(NCC(C)(C)CO)n2)cc(OC)c1OC` [CBK037854] belongs 129.85%; to `CCOC(=O)c1ccccc1NC(=O)CCC(=O)O` [CBK261631], 109.803%; to `COc1ccc(S(=O)(=O)N2CCN(C(C(=O)O)c3ccc(C)cc3)CC2)cc1` (stereo not shown) [CBK296753], 117.807%. As to `FC(F)(F)c1cc(-c2cn3ccnc3c(NC3CCOCC3)n2)cc(C(F)(F)F)c1` [CBK037278], the “% of control remaining” value was 101.218%. Regarding `O=C(Cc1ccc(Cl)c(Cl)c1)N1CCN(C(=O)c2ccco2)CC1` [CBK144454], the “% of control remaining” value is 70.6999%. The figure for `Cc1c(Nc2ncnc3sc4c(c23)CCCC4)c(=O)n(-c2ccccc2)n1C` [CBK093912] is 97.3596%; for `CCN(CC)CCN(Cc1ccc2c(c1)OCO2)C(=O)Nc1ccc(C)cc1` [CBK159059] it is 116.778%. Turning to `COC(=O)c1ccc2cccnc2c1O` [CBK017876], the “% of control remaining” value is given as 109.825%. In the case of `CCCC(NC(=O)C1C=CCN1S(C)(=O)=O)c1cccs1` (stereo not shown) [CBK282668], the “% of control remaining” value turned out to be 99.6684%.

As for `COc1ccc(CCCCN(C(=O)C(N)Cc2ccccc2)c2cccc3ccccc23)cc1OC` (stereo not shown) [CBK001032T], the “% of control remaining” value is reported as 71.6544%.

As for `O=C(OCc1ccccc1)N1CCC(C2OCc3ccc(-c4ccc(Cl)c(Cl)c4)cc3O2)CC1` (stereo not shown) [CBK144646], the “% of control remaining” value came to 108.706%. To `Cc1ccc(-n2c(C)cc(C(=O)CSc3n[nH]c(=O)n3C3CC3)c2C)cc1C` [CBK296764] belongs 135.624%; to `COc1cc2c(cc1OC)C1c3ccccc3N(Cn3nnc4ccccc43)C(=O)N1CC2` (stereo not shown) [CBK286193], 124.389%; to `Cc1ccc(C2(CN3CCC(NC(=O)CO)CC3)CCCC2)cc1` [CBK282628], 120.63%. Take `Cc1cccc(-c2nc(=S)c3c(n2CCCN(C)C)CCCC3)c1` [CBK268406]: the “% of control remaining” value is recorded as 116.716%. The figure for `COc1ccccc1CN(C1CCNCC1)S(=O)(=O)c1c(Cl)cccc1Cl` [CBK160807T] is 136.93%. To `O=C(CSc1nnc(-c2cccs2)n1-c1ccccc1)Nc1ccnc2ccccc12` [CBK267487] belongs 117.624%; to `CCN(CCO)c1ccc(Nc2cc(-c3ccc(C#N)cc3)ncn2)cc1` [CBK037764], 138.109%; to `COc1cc2c(cc1OC)C(C)N(C(=O)CCC(=O)O)CC2` (stereo not shown) [CBK269873], 118.337%. To `CCCCCc1nnc(Nc2nc(C)cc(C)n2)[nH]1` [CBK288155] belongs 123.049%; to `CN1CCN(c2cccc(-c3ccsc3)n2)CC1` [CBK036916], 118.546%.

For the molecule `O=C(CSc1nnc2[nH]c(=O)ccn12)NCc1ccccc1Cl` [CBK287684], the “% of control remaining” value came to 103.25%. As to `CNC(=O)c1sc2ccccc2c1C1CN(Cc2cn(C)c3ccc(F)cc23)CCO1` (stereo not shown) [CBK285868], the “% of control remaining” value is on record as 69.4551%. For the molecule `Cc1cc(C)nc(NC(=O)C(C)Oc2ccc(Cl)cc2C)n1` (stereo not shown) [CBK268111], the “% of control remaining” value was 107.787%.

As to `Cc1cc(-n2c(C)cc(C(=O)CSc3n[nH]c(=O)n3CC3CCCO3)c2C)no1` (stereo not shown) [CBK295589], the “% of control remaining” value was 112.573%. On to `c1ccc(CNC2(Cc3cc(-c4ccccn4)on3)COC2)cc1` [CBK289643], for which the “% of control remaining” value turned out to be 105.702%. The figure for `CCn1nncc1CNC1CCc2[nH]c3ccc(C)cc3c2C1` (stereo not shown) [CBK304749] is 148.902%. To `CC(=O)Nc1ccc(/C(C)=N/Nc2nc(N3CCCC3)nc(N3CCCC3)n2)cc1` [CBK021877] belongs 107.91%. Consider `O=C(O)c1ccc(S(=O)(=O)c2ccc3c(c2)C(=O)N(NC(=O)c2ccc(O)cc2)C3=O)cc1` [CBK264229], for which the “% of control remaining” value is given as 133.878%. To `c1ccc2c(CCN3CCN(c4nccnc4OC4CCCCC4)CC3)c[nH]c2c1` [CBK082847T] belongs 112.164%. Take `CCCNC(=O)Cn1nc(C)n2c(cc3ccsc32)c1=O` [CBK284061]: the “% of control remaining” value came to 136.168%. To `CCN1CCC2CN(CCCC(c3ccc(F)cc3)c3ccc(F)cc3)CCN2C1=O` (stereo not shown) [CBK024996] belongs 102.125%; to `Cc1ccc2[nH]c(Cc3ccc(NC(=O)c4nc5ccccc5n(C)c4=O)cc3)nc2c1` [CBK285802], 152.806%; to `CCCCSc1nc(N)cc(N2CCCN(C(=O)C3CCCO3)CC2)n1` (stereo not shown) [CBK307209], 93.9399%. The figure for `CC(C)C(=O)N1CC2(CCN(CCc3c[nH]c4ccccc34)CC2)c2ccccc21` [CBK126725] is 121.028%; for `O=C(Cn1cnc2c(F)cc(Br)cc2c1=O)N1CCOC2CCCCC21` (stereo not shown) [CBK305229] it is 100.791%; for `CC1(C)CC(=O)C2=C(C1)Nc1nc(SCc3ccc([N+](=O)[O-])cc3)[nH]c(=O)c1C2c1cccnc1` (stereo not shown) [CBK266096] it is 194.283%.

Take `CN(C(=O)CSc1nc2ccccc2nc1Cc1ccc(Cl)cc1)C1CCCCC1` [CBK294411]: the “% of control remaining” value came to 87.6215%.

In the case of `COc1ccc(C(NC(=O)c2ccc(C(C)N3CCOCC3)o2)c2ccccc2)cc1` (stereo not shown) [CBK285748], the “% of control remaining” value is 86.3082%.
